The source gives many values for each of these; only a part stands here.
System: CHD (fatal CHD, definite non-fatal MI, or revascularization)
Assay: CARE: SNP by pravastatin treatment interaction, logistic regression (synergy index), CHD endpoint
Format: in vivo, human
Excerpt: CARE was a secondary prevention trial and WOSCOPS was a primary prevention trial.
The CHD endpoint was defined in the analyses herein of CARE as a composite endpoint of fatal CHD, definite non-fatal MI, or revascularization, and was defined in the analyses herein of WOSCOPS as a composite endpoint of death from CHD, nonfatal MI, or revascularization. In both the CARE and WOSCOPS analyses herein, the CVD endpoint was defined as a composite endpoint of CHD or stroke. […] Revascularization, which can include percutaneous transluminal coronary angioplasty (PTCA), stent placement, and coronary artery bypass graft (CABG), are medical interventions that indicate the presence of CHD.
Cohort and case-only study designs were used to identify SNPs associated with response to statin treatment.
For each SNP, a logistic regression model having treatment status as the dependent variable and SNP as the independent predictor variable was performed, with terms for age, sex and race included in the model as covariates. The anti-log of the regression coefficient corresponding to the SNP is an estimate of the synergy index (SI) (Davis et al., “Imputing gene-treatment interactions when the genotype distribution is unknown using case-only and putative placebo analyses-a new method for the Genetics of Hypertension Associated Treatment (GenHAT) study”, Statistics in Medicine 23: (2004), pages 2413-2427). The SI is a ratio of odds ratios: for example in the CARE and WOSCOPS studies, the SI represents the factor by which the odds-ratio of statin treatment, compared with placebo, among major homozygous individuals is multiplied by in order to obtain the odds-ratio of treatment vs. placebo among heterozygous individuals; and multiplied by a second time to obtain the odds-ratio of treatment vs. placebo in minor homozygous individuals. The case-only study design results in a valid estimate of the SI under the assumption that genotype and treatment are independent in the population. In a randomized clinical trial, genotype and treatment are independent by design. The p-value for the regression coefficient corresponding to the SNP results from a test of the null hypothesis that the regression coefficient is equal to zero (SI is equal to one) and thus small p-values indicate the SI is unlikely equal to one and that the effect of treatment likely differs by genotype.
A case-only study design was used to test whether the reduction of CHD events by statin therapy (for CARE and WOSCOPS studies) differed according to genotype (a treatment by SNP interaction) for each SNP evaluated in the study.

Structure (SMILES): CC[C@H](C)C(=O)O[C@H]1C[C@H](O)C=C2C=C[C@H](C)[C@H](CC[C@@H](O)C[C@@H](O)CC(=O)O)[C@H]21 [Pravastatin, pravastatin]
- OR (rs9813552, allele G, ADD model, Imputed, NMISS 673): 0.487
- OR (rs9813552, allele G, DOM model, Imputed, NMISS 673): 0.472
- OR (rs9815037, allele T, ADD model, Imputed, NMISS 682): 0.482
- OR (rs9815037, allele T, DOM model, Imputed, NMISS 682): 0.467
- OR (rs9825349, allele A, ADD model, Imputed, NMISS 682): 0.482
- OR (rs9825349, allele A, DOM model, Imputed, NMISS 682): 0.467
- OR (rs9834217, allele T, ADD model, Imputed, NMISS 681): 0.483
- OR (rs9834217, allele T, DOM model, Imputed, NMISS 681): 0.468
- OR (rs9840460, allele T, ADD model, Imputed, NMISS 682): 0.482
- OR (rs9840460, allele T, DOM model, Imputed, NMISS 682): 0.467
- OR (rs9840756, allele A, ADD model, Imputed, NMISS 682): 0.482
- OR (rs9840756, allele A, DOM model, Imputed, NMISS 682): 0.467
- OR (rs9844801, allele C, DOM model, Imputed, NMISS 682): 1.705
- CARE OR (rs9859901 allele A vs C (ref), Source cohort): 0.59
- OR (rs9869187, allele C, ADD model, Imputed, NMISS 681): 0.488
- OR (rs9869187, allele C, DOM model, Imputed, NMISS 681): 0.497
- OR (rs9872327, allele T, DOM model, Imputed, NMISS 682): 1.705
- OR (rs9881685, allele A, ADD model, Imputed, NMISS 682): 0.481
- OR (rs9881685, allele A, DOM model, Imputed, NMISS 682): 0.466
- CARE OR (rs9896077 allele G vs A (ref), Source cohort): 0.63
- OR (rs9909499, allele C, DOM model, Imputed, NMISS 668): 1.42
- OR (rs9911847, allele G, DOM model, Imputed, NMISS 680): 0.668
- OR (rs9946886, allele G, REC model, Imputed, NMISS 232): 0.3
- OR (rs9958823, allele A, ADD model, Imputed, NMISS 679): 1.579
- OR (rs9965248, allele T, ADD model, Imputed, NMISS 671): 1.556
- OR (rs10021016 allele G, REC, Genotyped): 2.242
- OR (rs10051148, allele C, DOM, Imputed): 0.6544
- OR (rs10054055, allele T, DOM, Imputed): 0.6617
- OR (rs10067895, allele A, DOM, Imputed): 0.6716
- OR (rs10100725 allele C, DOM, Imputed): 0.5483
- CARE OR (rs10106852, A1 (non-ref) G, A2 (ref) A): 1.40
- OR (rs10128531 allele T, ADD, Imputed): 1.482
- CARE OR (rs10155047 allele A vs G (ref), Source cohort): 0.59
- OR (rs10181743 allele G, ADD, Imputed): 1.488
- OR (rs10199127 allele T, DOM, Imputed): 1.486
- OR (rs10270624 allele G, DOM, Imputed): 1.438
- CARE OR (rs10305439 allele A vs C (ref), Source cohort): 0.62
- CARE OR (rs10429616 allele G vs A (ref), Source cohort): 2.07
- OR (rs10430870 allele G, REC, Genotyped): 2.178
- CARE OR (rs10444402 allele G vs A (ref), Source cohort): 0.71
- CARE OR (rs10460737, A1 (non-ref) A, A2 (ref) G): 0.43
- OR (rs10469597 allele A, REC, Imputed): 2.519
- OR (rs10478919, allele G, DOM, Imputed): 0.6489
- CARE OR (rs10494924 allele C vs A (ref), Source cohort): 0.61
- OR (rs10506623, allele C, DOM, Imputed): 0.6128
- OR (rs10506623 allele C, ADD, Imputed): 0.7349
- OR (rs10506626, allele A, DOM, Imputed): 0.5922
- OR (rs10506626 allele A, ADD, Imputed): 0.7463
- OR (rs10509477 allele T, DOM, Imputed): 1.654
- OR (rs10517918 allele G, REC, Imported): 1.697
- OR (rs10517924 allele A, REC, Imputed): 1.803
- OR (rs10519362 allele G, DOM, Imputed): 1.5
- OR (rs10520072, allele T, DOM, Imputed): 0.6617
- OR (rs10737390, allele T, DOM, Imputed): 0.5772
- OR (rs10742851 allele T, REC, Imputed): 0.406
- OR (rs10743685 allele G, REC, Imputed): 1.943
- OR (rs10749293, allele G, DOM, Imputed): 1.637
- OR (rs10749294 allele A, DOM, Imputed): 1.575
- OR (rs10753760, allele T, ADD, Imputed): 1.391
- OR (rs10772362 allele T, ADD, Imputed): 0.6338
- OR (rs10784891, allele C, ADD, Imputed): 0.7164
- OR (rs10784891, allele C, DOM, Imputed): 0.631
- OR (rs10787923, allele G, DOM, Imputed): 1.647
- OR (rs10787924 allele T, DOM, Imputed): 1.585
- OR (rs10787949, allele A, DOM, Imputed): 1.634
- OR (rs10787951, allele G, DOM, Imputed): 1.634
- OR (rs10787983, allele C, DOM, Imputed): 1.614
- OR (rs10794733 allele C, ADD, Imputed): 0.765
- CARE OR (rs10817479, A1 (non-ref) A, A2 (ref) G): 1.83
- OR (rs10818280 allele C, DOM, Imputed): 0.7042
- OR (rs10860586 allele A, ADD, Imputed): 1.322
- OR (rs10870473 allele A, ADD, Imputed): 0.54
- OR (rs10870473 allele A, DOM, Imputed): 0.4734
- OR (rs10879240, allele C, ADD, Imputed): 0.7324

Source: patent publication US10563263B2, “Genetic polymorphisms associated with statin response and cardiovascular diseases, methods of detection and uses thereof” (CELERA CORPORATION, priority 2010, dated 2020)
